According to the supplement of paper PMC10849652:
The other results are listed elsewhere or left out.

Protein sequences, listed by entry. Tags and fused reporters are not part of them. Lines headed by an entry give the natural chain unless they say otherwise; changes in a name come on top.
UniProt Q96P11: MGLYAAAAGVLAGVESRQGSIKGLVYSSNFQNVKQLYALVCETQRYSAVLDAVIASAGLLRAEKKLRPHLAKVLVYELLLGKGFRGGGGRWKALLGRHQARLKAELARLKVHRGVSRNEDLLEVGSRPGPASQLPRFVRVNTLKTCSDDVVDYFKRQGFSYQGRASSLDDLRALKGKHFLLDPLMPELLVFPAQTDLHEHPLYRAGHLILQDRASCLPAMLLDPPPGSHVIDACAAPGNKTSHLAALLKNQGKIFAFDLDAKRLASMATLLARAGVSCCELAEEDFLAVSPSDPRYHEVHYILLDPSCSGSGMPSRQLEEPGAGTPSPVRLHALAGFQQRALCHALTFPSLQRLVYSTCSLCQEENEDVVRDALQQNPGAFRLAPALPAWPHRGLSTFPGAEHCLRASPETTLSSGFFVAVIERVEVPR
UniProt Q96G74: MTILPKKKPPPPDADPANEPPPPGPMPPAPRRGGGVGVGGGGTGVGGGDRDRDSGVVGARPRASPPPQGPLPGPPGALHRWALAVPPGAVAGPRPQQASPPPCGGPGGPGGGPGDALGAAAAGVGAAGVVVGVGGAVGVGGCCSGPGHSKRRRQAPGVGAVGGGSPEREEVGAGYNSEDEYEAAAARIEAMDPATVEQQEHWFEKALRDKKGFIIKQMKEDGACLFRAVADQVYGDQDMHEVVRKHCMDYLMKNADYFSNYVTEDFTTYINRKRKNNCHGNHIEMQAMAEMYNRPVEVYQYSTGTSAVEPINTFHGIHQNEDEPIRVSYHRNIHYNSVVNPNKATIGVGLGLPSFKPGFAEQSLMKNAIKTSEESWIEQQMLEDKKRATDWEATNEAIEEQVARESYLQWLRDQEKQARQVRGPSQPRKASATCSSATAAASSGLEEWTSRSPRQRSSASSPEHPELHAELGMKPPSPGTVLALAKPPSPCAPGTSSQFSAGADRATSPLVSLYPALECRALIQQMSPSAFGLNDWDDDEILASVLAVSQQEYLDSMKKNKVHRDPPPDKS
UniProt A8MXV4: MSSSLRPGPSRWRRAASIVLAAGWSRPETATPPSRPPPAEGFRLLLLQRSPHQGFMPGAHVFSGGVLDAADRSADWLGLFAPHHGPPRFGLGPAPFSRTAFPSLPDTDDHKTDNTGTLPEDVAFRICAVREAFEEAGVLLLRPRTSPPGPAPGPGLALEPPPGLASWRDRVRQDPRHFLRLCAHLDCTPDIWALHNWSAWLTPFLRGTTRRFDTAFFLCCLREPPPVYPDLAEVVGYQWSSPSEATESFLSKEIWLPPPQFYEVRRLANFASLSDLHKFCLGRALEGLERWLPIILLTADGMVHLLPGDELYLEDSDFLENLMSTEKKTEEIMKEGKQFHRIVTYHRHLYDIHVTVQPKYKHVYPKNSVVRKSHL
UniProt P37198: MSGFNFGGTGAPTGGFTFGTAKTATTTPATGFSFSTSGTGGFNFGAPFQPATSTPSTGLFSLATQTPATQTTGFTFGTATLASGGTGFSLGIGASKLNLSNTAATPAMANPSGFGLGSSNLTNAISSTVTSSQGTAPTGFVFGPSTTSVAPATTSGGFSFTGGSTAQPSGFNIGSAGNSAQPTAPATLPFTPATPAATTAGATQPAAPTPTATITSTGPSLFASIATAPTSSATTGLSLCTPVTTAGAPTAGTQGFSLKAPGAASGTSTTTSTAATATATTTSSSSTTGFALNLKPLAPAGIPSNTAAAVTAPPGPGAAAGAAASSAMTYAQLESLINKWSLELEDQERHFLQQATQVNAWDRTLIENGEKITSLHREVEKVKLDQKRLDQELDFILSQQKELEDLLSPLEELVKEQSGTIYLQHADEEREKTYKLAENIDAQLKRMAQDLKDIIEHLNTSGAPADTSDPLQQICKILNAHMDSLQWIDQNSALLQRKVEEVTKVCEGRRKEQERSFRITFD
UniProt Q32P28: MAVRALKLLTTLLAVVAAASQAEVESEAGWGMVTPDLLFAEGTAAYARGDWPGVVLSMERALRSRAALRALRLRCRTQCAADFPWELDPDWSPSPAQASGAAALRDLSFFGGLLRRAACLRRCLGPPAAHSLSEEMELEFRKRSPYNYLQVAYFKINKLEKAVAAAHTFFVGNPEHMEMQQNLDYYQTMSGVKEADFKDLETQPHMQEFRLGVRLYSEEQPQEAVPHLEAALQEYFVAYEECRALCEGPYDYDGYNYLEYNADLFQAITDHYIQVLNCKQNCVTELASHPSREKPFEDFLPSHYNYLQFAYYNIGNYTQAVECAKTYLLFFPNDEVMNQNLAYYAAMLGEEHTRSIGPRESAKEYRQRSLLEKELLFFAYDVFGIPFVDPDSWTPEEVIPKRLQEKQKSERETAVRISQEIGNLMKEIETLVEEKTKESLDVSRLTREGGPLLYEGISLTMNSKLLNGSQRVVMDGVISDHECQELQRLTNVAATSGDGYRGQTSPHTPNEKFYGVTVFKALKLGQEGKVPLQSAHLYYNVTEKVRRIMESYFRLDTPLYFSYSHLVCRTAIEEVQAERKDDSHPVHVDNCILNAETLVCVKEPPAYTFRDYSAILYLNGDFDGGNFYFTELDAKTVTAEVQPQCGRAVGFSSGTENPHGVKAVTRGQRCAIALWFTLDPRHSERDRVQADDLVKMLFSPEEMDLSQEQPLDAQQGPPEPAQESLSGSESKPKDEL
UniProt P20774: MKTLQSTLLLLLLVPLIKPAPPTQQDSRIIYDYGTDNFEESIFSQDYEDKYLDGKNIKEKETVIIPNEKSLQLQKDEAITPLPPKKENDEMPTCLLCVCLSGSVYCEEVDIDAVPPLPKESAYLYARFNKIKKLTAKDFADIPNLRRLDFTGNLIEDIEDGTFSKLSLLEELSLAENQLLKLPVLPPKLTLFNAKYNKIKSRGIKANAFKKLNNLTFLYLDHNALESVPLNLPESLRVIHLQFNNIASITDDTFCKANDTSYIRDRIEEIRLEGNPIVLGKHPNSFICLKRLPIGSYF
UniProt O95989: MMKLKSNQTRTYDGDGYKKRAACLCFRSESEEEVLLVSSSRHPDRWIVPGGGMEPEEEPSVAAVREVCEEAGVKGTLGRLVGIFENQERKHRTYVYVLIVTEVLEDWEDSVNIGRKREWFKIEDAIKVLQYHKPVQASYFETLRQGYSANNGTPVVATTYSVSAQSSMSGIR
UniProt Q9BXS6: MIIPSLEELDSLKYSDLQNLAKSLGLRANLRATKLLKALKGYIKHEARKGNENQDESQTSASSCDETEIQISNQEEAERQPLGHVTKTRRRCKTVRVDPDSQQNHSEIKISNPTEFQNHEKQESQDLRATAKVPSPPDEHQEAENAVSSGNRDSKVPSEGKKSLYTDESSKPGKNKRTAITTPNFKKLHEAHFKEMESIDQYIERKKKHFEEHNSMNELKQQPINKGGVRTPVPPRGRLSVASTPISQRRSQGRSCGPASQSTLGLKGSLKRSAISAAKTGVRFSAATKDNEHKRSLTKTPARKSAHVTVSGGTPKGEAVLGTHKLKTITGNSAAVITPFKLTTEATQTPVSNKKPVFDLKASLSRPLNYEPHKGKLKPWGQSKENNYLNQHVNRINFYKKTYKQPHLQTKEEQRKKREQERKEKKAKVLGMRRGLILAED
UniProt Q9Y530: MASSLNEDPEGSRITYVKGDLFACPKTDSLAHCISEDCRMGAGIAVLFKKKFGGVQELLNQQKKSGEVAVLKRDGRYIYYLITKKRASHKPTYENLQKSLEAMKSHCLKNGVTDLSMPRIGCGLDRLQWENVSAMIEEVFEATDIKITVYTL
UniProt Q9NV35: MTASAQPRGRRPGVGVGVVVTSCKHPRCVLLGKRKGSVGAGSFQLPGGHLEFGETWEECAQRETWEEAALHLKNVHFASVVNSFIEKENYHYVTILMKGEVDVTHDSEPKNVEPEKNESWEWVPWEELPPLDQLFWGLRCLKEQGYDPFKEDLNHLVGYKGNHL
UniProt Q01968: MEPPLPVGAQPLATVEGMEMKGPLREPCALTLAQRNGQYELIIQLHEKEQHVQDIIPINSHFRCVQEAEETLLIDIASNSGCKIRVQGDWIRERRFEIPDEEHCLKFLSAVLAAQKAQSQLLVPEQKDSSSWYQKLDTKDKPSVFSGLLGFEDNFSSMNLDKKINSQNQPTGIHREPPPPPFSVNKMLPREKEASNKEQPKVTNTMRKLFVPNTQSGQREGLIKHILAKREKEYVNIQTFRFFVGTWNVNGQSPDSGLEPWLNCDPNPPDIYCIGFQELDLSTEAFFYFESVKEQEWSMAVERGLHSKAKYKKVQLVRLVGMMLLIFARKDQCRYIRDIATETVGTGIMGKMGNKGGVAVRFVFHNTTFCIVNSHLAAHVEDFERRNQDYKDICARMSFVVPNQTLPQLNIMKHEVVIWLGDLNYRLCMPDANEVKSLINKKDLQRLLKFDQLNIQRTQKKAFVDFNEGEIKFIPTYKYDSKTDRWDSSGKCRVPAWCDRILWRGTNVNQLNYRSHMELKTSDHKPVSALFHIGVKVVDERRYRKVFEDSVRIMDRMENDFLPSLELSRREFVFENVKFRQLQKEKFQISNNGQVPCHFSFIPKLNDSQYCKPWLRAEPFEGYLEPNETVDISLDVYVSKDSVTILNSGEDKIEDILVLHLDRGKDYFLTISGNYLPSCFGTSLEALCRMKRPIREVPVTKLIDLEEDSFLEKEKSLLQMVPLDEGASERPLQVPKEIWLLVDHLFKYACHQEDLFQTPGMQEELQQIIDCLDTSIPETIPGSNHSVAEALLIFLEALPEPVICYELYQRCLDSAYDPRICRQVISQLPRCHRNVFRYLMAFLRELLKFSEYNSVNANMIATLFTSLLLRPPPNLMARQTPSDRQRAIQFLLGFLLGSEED
UniProt Q9BVL2: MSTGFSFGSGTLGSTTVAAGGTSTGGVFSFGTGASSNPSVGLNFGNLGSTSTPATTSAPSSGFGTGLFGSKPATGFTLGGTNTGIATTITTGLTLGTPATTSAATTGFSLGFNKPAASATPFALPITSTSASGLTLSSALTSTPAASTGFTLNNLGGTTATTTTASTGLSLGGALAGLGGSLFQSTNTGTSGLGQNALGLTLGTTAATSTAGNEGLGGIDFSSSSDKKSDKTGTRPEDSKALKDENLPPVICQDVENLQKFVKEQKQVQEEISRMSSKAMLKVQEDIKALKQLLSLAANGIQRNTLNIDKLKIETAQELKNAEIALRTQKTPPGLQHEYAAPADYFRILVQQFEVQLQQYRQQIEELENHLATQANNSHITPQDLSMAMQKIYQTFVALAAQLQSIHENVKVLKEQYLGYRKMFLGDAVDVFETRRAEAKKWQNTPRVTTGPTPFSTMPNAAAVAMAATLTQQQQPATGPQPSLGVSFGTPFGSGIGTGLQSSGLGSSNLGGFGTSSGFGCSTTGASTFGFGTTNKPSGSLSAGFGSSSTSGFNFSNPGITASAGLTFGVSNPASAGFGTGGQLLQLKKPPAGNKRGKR
UniProt P80303: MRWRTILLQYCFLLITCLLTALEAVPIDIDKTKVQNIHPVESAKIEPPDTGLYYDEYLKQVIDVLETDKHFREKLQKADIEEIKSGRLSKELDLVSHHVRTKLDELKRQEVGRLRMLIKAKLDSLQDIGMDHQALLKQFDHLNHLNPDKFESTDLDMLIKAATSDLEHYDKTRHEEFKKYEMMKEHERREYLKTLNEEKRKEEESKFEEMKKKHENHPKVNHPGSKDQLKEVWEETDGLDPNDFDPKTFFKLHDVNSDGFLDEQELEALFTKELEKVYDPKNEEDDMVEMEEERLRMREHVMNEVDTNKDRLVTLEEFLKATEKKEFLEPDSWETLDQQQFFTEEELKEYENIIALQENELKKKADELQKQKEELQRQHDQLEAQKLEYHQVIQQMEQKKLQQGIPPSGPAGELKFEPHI
UniProt Q9UQ80: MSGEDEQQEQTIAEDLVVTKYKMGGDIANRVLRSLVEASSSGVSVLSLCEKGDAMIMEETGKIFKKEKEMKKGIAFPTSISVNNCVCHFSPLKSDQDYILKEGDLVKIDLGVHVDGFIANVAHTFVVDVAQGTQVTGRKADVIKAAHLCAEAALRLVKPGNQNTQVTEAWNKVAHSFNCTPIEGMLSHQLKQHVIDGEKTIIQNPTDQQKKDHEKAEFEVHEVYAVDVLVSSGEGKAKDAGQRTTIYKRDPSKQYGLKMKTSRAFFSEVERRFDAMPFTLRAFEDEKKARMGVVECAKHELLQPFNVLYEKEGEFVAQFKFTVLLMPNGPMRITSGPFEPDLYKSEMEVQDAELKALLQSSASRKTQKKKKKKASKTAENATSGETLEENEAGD
UniProt Q9NPF4: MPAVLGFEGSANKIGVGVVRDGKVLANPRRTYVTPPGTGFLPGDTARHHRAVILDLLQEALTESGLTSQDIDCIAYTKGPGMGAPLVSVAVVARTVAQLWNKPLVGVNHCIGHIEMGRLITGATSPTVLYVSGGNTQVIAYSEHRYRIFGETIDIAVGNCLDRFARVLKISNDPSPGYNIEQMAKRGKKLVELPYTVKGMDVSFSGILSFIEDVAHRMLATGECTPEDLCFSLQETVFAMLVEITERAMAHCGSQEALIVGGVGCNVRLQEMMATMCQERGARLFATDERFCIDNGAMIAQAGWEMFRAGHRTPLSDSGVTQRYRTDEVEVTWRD

Legend:
Test in all cases: log2 fold change, soluble protein after heating vs DMSO (PISA); higher = thermal stabilisation; K562 cells, 10 uM, 30 min; active = over 0.2 and 3.5 SD of the protein, either way, in both replicates (recomputed)
saracatinib = compound: CN1CCN(CCOc2cc(OC3CCOCC3)c3c(Nc4c(Cl)ccc5c4OCO5)ncnc3c2)CC1 [saracatinib]
In short: (§1)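 Quantification of soluble protein used TMTpro 16plex LC-MS/MS, with channel sums equalised. Samples were the supernatant after 21,000xg for 90 min of pooled aliquots from K562 cells (2×10^6 cells/mL) treated with 10 μM compound for 30 min, heated for 3 min over 48°C-58°C, and extracted in PBS with 0.5% NP-40 at 4°C. Values, from duplicates, describe thermal stability against control samples on a log2 fold-change scale.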

sotrastaurin = compound: CN1CCN(c2nc(C3=C(c4c[nH]c5ccccc45)C(=O)NC3=O)c3ccccc3n2)CC1 [sotrastaurin]
In short: as §1

alvocidib = compound: CN1CC[C@H](c2c(O)cc(O)c3c(=O)cc(-c4ccccc4Cl)oc23)[C@H](O)C1 [alvocidib]
In short: as §1

Tubastatin A = compound: CN1CCc2c(c3ccccc3n2Cc2ccc(C(=O)NO)cc2)C1 [Tubastatin A]
In short: as §1

[1] = compound: CNC(=O)C1=CC=CC=C1NC2=NC(=NC=C2Cl)NC3=C(C=C(C=C3)N4CCOCC4)OC
In short: as §1

defactinib = compound: CNC(=O)c1ccc(Nc2ncc(C(F)(F)F)c(NCc3nccnc3N(C)S(C)(=O)=O)n2)cc1 [defactinib]
In short: as §1

rucaparib = compound: CNCc1ccc(-c2[nH]c3cc(F)cc4c3c2CCNC4=O)cc1 [rucaparib]
In short: as §1

[2] = compound: CNc1nc(-c2ccc3c(N)n[nH]c3c2)cc(N2C[C@@H](C(=O)NC3CCCCC3)CC[C@H]2C)n1
In short: as §1

encorafenib = compound: COC(=O)N[C@@H](C)CNc1nccc(-c2cn(C(C)C)nc2-c2cc(Cl)cc(NS(C)(=O)=O)c2F)n1 [encorafenib]
In short: as §1

[3] = compound: COC(=O)[C@H](CCSC)NC(=O)C1=C(C=C(C=C1)NC[C@H](CS)N)C2=CC=CC=C2
In short: as §1

[4] = compound: COC1=CC=C(C=C1)CN2C=CC3=C2C=C(C=C3)C(=O)NO
In short: as §1

filanesib = compound: CON(C)C(=O)N1N=C(c2cc(F)ccc2F)S[C@@]1(CCCN)c1ccccc1 [filanesib]
In short: as §1

zotarolimus = compound: CO[C@H]1C[C@@H]2CC[C@@H](C)[C@@](O)(O2)C(=O)C(=O)N2CCCC[C@H]2C(=O)O[C@H]([C@H](C)C[C@@H]2CC[C@H](n3cnnn3)[C@H](OC)C2)CC(=O)[C@H](C)/C=C(\C)[C@@H](O)[C@@H](OC)C(=O)[C@H](C)C[C@H](C)/C=C/C=C/C=C/1C [zotarolimus]
In short: as §1

idasanutlin = compound: COc1cc(C(=O)O)ccc1NC(=O)[C@@H]1N[C@@H](CC(C)(C)C)[C@](C#N)(c2ccc(Cl)cc2F)[C@H]1c1cccc(Cl)c1F [idasanutlin]
In short: as §1

alisertib = compound: COc1cc(Nc2ncc3c(n2)-c2ccc(Cl)cc2C(c2c(F)cccc2OC)=NC3)ccc1C(=O)O [alisertib]
In short: as §1

[5] = compound: COc1cc2nc(-c3cc(F)ccc3O)nc(N[C@@H]3CNC[C@H]3C(C)(C)O)c2cc1OC
In short: as §1

gefitinib = compound: COc1cc2ncnc(Nc3ccc(F)c(Cl)c3)c2cc1OCCCN1CCOCC1 [gefitinib]
In short: as §1

[6] = compound: COc1cccc2cc(-c3nc([C@H]4CC[C@H](C(=O)O)CC4)n4ncnc(N)c34)[nH]c12
In short: as §1

lapatinib = compound: CS(=O)(=O)CCNCc1ccc(-c2ccc3ncnc(Nc4ccc(OCc5cccc(F)c5)c(Cl)c4)c3c2)o1 [lapatinib]
In short: as §1

pictilisib = compound: CS(=O)(=O)N1CCN(Cc2cc3nc(-c4cccc5[nH]ncc45)nc(N4CCOCC4)c3s2)CC1 [pictilisib]
In short: as §1

Measured: log2 fold change

NSUN5 isoform 2 (UniProt Q96P11)
inactive: saracatinib 0.091 | sotrastaurin -0.005 | alvocidib 0.063 | Tubastatin A 0.082 | [1] -0.029 | defactinib -0.007 | rucaparib -0.026 | [2] 0.099 | encorafenib 0.035 | [3] 0.078 | [4] -0.013 | filanesib 0.093 | zotarolimus 0.007 | idasanutlin -0.024 | alisertib -0.133 | [5] 0.01 | gefitinib -0.027 | [6] 0.027 | lapatinib 0.064 | pictilisib -0.113

OTUD5 isoform 5 (UniProt Q96G74)
inactive: saracatinib 0.063 | sotrastaurin -0.034 | alvocidib -0.095 | Tubastatin A 0.05 | [1] -0.01 | defactinib -0.102 | rucaparib -0.04 | [2] -0.008 | encorafenib -0.031 | [3] 0.104 | [4] -0.024 | filanesib 0.011 | zotarolimus 0.062 | idasanutlin 0.022 | alisertib -0.06 | [5] -0.081 | gefitinib -0.002 | [6] 0.082 | lapatinib 0.023 | pictilisib 0.143

NUDT19 (UniProt A8MXV4)
inactive: saracatinib 0.054 | sotrastaurin 0.002 | alvocidib -0.026 | Tubastatin A 0.052 | [1] 0.008 | defactinib -0.049 | rucaparib 0.017 | [2] -0.046 | encorafenib -0.01 | [3] -0.016 | [4] 0.027 | filanesib 0.02 | zotarolimus 0.026 | idasanutlin -0.037 | alisertib -0.056 | [5] 0.058 | gefitinib 0.036 | [6] 0.029 | lapatinib -0.014 | pictilisib 0.039

NUP62 (UniProt P37198)
inactive: saracatinib -0.134 | sotrastaurin -0.027 | alvocidib -0.061 | Tubastatin A -0.01 | [1] -0.002 | defactinib -0.029 | rucaparib 0.066 | [2] -0.008 | encorafenib 0.037 | [3] 0.02 | [4] 0.009 | filanesib 0.001 | zotarolimus 0.008 | idasanutlin -0.001 | alisertib -0.04 | [5] 0.039 | gefitinib -0.035 | [6] -0.058 | lapatinib 0.006 | pictilisib 0.092

P3H1 (UniProt Q32P28)
inactive: saracatinib -0.094 | sotrastaurin -0.038 | alvocidib 0.03 | Tubastatin A 0.068 | [1] 0.027 | defactinib 0.071 | rucaparib 0.069 | [2] 0.046 | encorafenib 0.076 | [3] -0.026 | [4] -0.067 | filanesib 0.116 | zotarolimus 0.071 | idasanutlin 0.121 | alisertib -0.128 | [5] -0.021 | gefitinib 0.002 | [6] -0.106 | lapatinib 0.092 | pictilisib -0.022

OGN (UniProt P20774)
inactive: saracatinib -0.077 | sotrastaurin 0.203 | alvocidib -0.181 | Tubastatin A -0.092 | [1] 0.349 | defactinib -0.121 | rucaparib -0.263 | [2] 0.046 | encorafenib 0.004 | [3] -0.068 | [4] 0.059 | filanesib -0.051 | zotarolimus 0.204 | idasanutlin 0.214 | alisertib -0.038 | [5] -0.066 | gefitinib 0.1 | [6] 0.137 | lapatinib -0.024

NUDT3 (UniProt O95989)
inactive: saracatinib -0.027 | sotrastaurin 0.013 | alvocidib 0.009 | Tubastatin A 0.143 | [1] -0.018 | defactinib -0.052 | rucaparib -0.074 | [2] -0.031 | encorafenib -0.039 | [3] 0.028 | [4] -0.019 | filanesib -0.019 | zotarolimus 0.011 | idasanutlin -0.041 | alisertib -0.084 | [5] 0.025 | gefitinib -0.003 | [6] 0.062 | lapatinib -0.093 | pictilisib -0.077

Fetched one by one from the list above (2):
NUDT3 (UniProt O95989)
inactive: saracatinib -0.027 | sotrastaurin 0.013 | alvocidib 0.009 | Tubastatin A 0.143 | [1] -0.018 | defactinib -0.052 | rucaparib -0.074 | [2] -0.031 | encorafenib -0.039 | [3] 0.028 | [4] -0.019 | filanesib -0.019 | zotarolimus 0.011 | idasanutlin -0.041 | alisertib -0.084 | [5] 0.025 | gefitinib -0.003 | [6] 0.062 | lapatinib -0.093 | pictilisib -0.077

NSUN5 isoform 2 (UniProt Q96P11)
inactive: saracatinib 0.091 | sotrastaurin -0.005 | alvocidib 0.063 | Tubastatin A 0.082 | [1] -0.029 | defactinib -0.007 | rucaparib -0.026 | [2] 0.099 | encorafenib 0.035 | [3] 0.078 | [4] -0.013 | filanesib 0.093 | zotarolimus 0.007 | idasanutlin -0.024 | alisertib -0.133 | [5] 0.01 | gefitinib -0.027 | [6] 0.027 | lapatinib 0.064 | pictilisib -0.113

Following part.

NUSAP1 (UniProt Q9BXS6)
inactive: saracatinib -0.068 | sotrastaurin -0.011 | alvocidib 0.189 | Tubastatin A 0.126 | [1] -0.006 | defactinib 0.03 | rucaparib -0.04 | [2] -0.022 | encorafenib 0.121 | [3] -0.01 | [4] -0.2 | filanesib 0.308 | zotarolimus 0.011 | idasanutlin 0.032 | alisertib 0.057 | [5] -0.03 | gefitinib -0.006 | [6] 0.121 | lapatinib 0.159 | pictilisib -0.117

OARD1 (UniProt Q9Y530)
inactive: saracatinib -0.112 | sotrastaurin -0.021 | alvocidib -0.111 | Tubastatin A 0.077 | [1] 0.034 | defactinib -0.14 | rucaparib 0.147 | [2] 0.086 | encorafenib -0.031 | [3] -0.027 | [4] 0.074 | filanesib 0.077 | zotarolimus -0.032 | idasanutlin -0.047 | alisertib -0.078 | [5] 0.098 | gefitinib 0.041 | [6] -0.123 | lapatinib 0.001

NUDT15 (UniProt Q9NV35)
inactive: saracatinib 0.05 | sotrastaurin -0.008 | alvocidib -0.161 | Tubastatin A 0.004 | [1] 0.009 | defactinib -0.016 | rucaparib -0.009 | [2] -0.027 | encorafenib 0.005 | [3] -0.021 | [4] 0.017 | filanesib -0.024 | zotarolimus 0.036 | idasanutlin -0.078 | alisertib -0.005 | [5] 0.008 | gefitinib 0.005 | [6] 0.02 | lapatinib 0.015 | pictilisib 0.299

OCRL (UniProt Q01968)
inactive: saracatinib -0.035 | sotrastaurin -0.016 | alvocidib -0.032 | Tubastatin A 0.009 | [1] 0.106 | defactinib 0.048 | rucaparib -0.048 | [2] -0.033 | encorafenib 0.076 | [3] -0.101 | [4] 0.011 | filanesib -0.006 | zotarolimus -0.031 | idasanutlin -0.037 | alisertib -0.009 | [5] 0.067 | gefitinib -0.175 | [6] 0.029 | lapatinib 0.022 | pictilisib 0.034

NUP58 (UniProt Q9BVL2)
inactive: saracatinib -0.064 | sotrastaurin 0.005 | alvocidib -0.017 | Tubastatin A 0.01 | [1] 0.021 | defactinib -0.001 | rucaparib -0.051 | [2] -0.015 | encorafenib 0.003 | [3] 0.02 | [4] -0.034 | filanesib -0.021 | zotarolimus -0.021 | idasanutlin -0.123 | alisertib -0.055 | [5] 0.127 | gefitinib 0.007 | [6] 0.009 | lapatinib 0.014 | pictilisib 0.013

NUCB2 (UniProt P80303)
inactive: saracatinib 0.055 | sotrastaurin 0.044 | alvocidib 0.006 | Tubastatin A -0.017 | [1] -0.011 | defactinib 0.011 | rucaparib -0.063 | [2] -0.053 | encorafenib -0.017 | [3] 0.007 | [4] -0.011 | filanesib -0.007 | zotarolimus -0.063 | idasanutlin -0.008 | alisertib -0.045 | [5] 0.025 | gefitinib 0.01 | [6] 0.038 | lapatinib -0.033 | pictilisib 0.029

PA2G4 (UniProt Q9UQ80)
inactive: saracatinib -0.031 | sotrastaurin 0.005 | alvocidib -0.035 | Tubastatin A 0.045 | [1] 0.006 | defactinib 0.017 | rucaparib -0.036 | [2] 0.068 | encorafenib 0.046 | [3] -0.019 | [4] 0.066 | filanesib -0.059 | zotarolimus 0.042 | idasanutlin -0.014 | alisertib -0.053 | [5] 0.007 | gefitinib -0.001 | [6] 0.011 | lapatinib 0.016 | pictilisib 0.013

OSGEP (UniProt Q9NPF4)
inactive: saracatinib 0.039 | sotrastaurin 0.057 | alvocidib -0.021 | Tubastatin A -0.065 | [1] -0.033 | defactinib -0.009 | rucaparib -0.052 | [2] -0.005 | encorafenib 0.001 | [3] 0.021 | [4] -0.116 | filanesib 0.016 | zotarolimus -0.019 | idasanutlin -0.011 | alisertib -0.056 | [5] 0.002 | gefitinib 0.014 | [6] 0.075 | lapatinib 0.007 | pictilisib 0.002
